Source: PubChem BioAssay AID1508588 (Peter MacCallum Cancer Centre, 2020)

- Test: 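Which gene losses make BRAF-mutant melanoma cells more responsive to vemurafenib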 (primary screen)
- Cell system: human WM266.4 melanoma cells (BRAF V600 mutant)
- Knock-down reagent: siRNA pool against human genes, 40 nM
- Timing: 96 h from transfection to read-out
- Treatment: vemurafenib 300 nM (about IC25), added 48 h after transfection, for 48 h; comparison arm got DMSO vehicle only
- Measured: 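Ratios to non-targeting siRNA for cell gain, counted as DAPI nuclei after minus before drug and averaged over two replicates, and for absorbance-read medium lactate per cell; both binned into fold-change classes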
- Scale: cell gain with vemurafenib: higher = more cell gain than with non-targeting siRNA; lactate per cell with vemurafenib: higher = more lactate made per cell
- Call rule: 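Enhancement is called by pairing each knock-down's vehicle-arm and drug-arm fold-change classes for viability or glycolysis; which class combinations qualify is not given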
- Calls: active = enhances vemurafenib effect; inactive = no enhancement seen
The whole screen tested about 18,000 reagents; this is a part drawn at random. Over the whole deposit, 790 (4.4%) were called active. 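Calls rest on a combination of fold-change classes in drug and vehicle arms, not all shown here.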 Reagent sequences are not shown.

| gene | PubChem SID | cell gain with vemurafenib | lactate per cell with vemurafenib | Call |
| --- | --- | --- | --- | --- |
| ORC4 | SID56478628 | 0.87 | 1.29 | inactive |
| AMN1 | SID134326723 | 0.67 | 1.4 | inactive |
| TCEAL5 | SID152153156 | 0.29 | 0.71 | inactive |
| OR2L3 | SID135624683 | 0.59 | 1.1 | inactive |
| MRPL22 | SID135623302 | 0.19 | 1.8 | inactive |
| GALP | SID135622877 | 0.69 | 0.76 | inactive |
| SLC44A4 | SID135622779 | 0.39 | 1.6 | inactive |
| BPY2C | SID135625129 | 0.77 | 0.51 | inactive |
| RXRG | SID134309896 | -0.13 | 4.01 | inactive |
| ADGRL3 | SID135621042 | 1.06 | 0.42 | inactive |
| SYT10 | SID152149397 | 0.41 | 1.06 | inactive |
| ATP6V1G1 | SID152155669 | 0.88 | 0.74 | inactive |
| QSOX1 | SID152152479 | 0.39 | 1.85 | inactive |
| CLDN5 | SID134315750 | 0.68 | 0.86 | inactive |
| EGLN1 | SID152154635 | 0.39 | 1.56 | inactive |
| UGT1A5 | SID134329476 | 0.68 | 0.88 | inactive |
| B4GALNT1 | SID152148673 | 0.46 | 0.72 | inactive |
| ABHD4 | SID152149199 | 0.37 | 0.64 | inactive |
| EVC2 | SID152148256 | -0.04 | 1.82 | inactive |
| RCN2 | SID134315723 | 0.99 | 0.96 | inactive |
| SPAG11A | SID135625693 | 0.59 | 1.54 | inactive |
| CHMP2B | SID134310576 | 0.34 | 1.64 | inactive |
| CFHR1 | SID135621468 | 0.47 | 0.6 | active |
| PTP4A3 | SID134312014 | 0.87 | 1.15 | inactive |
| ATCAY | SID152152550 | 0.62 | 1.04 | inactive |
| RPS23 | SID152149988 | -0.05 | 3.7 | inactive |
| SPANXN2 | SID135625381 | 0.8 | 0.89 | inactive |
| CDC25C | SID152148969 | 0.3 | 1.47 | inactive |
| CEP19 | SID134319103 | 0.61 | 1.05 | inactive |
| NUDT12 | SID134324942 | 0.53 | 1.07 | inactive |
| APOBR | SID152152322 | 0.29 | 1.55 | inactive |
| EDN1 | SID152149349 | 0.57 | 0.26 | inactive |
| TRAP1 | SID152156745 | 0.52 | 1.11 | inactive |
| CFL1 | SID134316968 | 0.56 | 0.5 | inactive |
| TSPAN4 | SID152153425 | 0.23 | 0.52 | active |
| ELOVL4 | SID134314844 | 1.05 | 0.66 | inactive |
| SNRPA | SID134323223 | 0.85 | 1.09 | inactive |
| CCNL1 | SID135621619 | 0.54 | 0.62 | inactive |
| FCER1G | SID152147683 | 1.02 | 0.82 | inactive |
| OR10H1 | SID152153335 | 0.5 | 1.18 | inactive |
| THRSP | SID134323350 | 0.4 | 0.36 | active |
| TYW5 | SID152150082 | 0.34 | 1.01 | inactive |
| KHDC3L | SID152156396 | 0.44 | 1.38 | inactive |
| SLC16A4 | SID134312454 | 0.78 | 1.17 | inactive |
| MANEA | SID134318554 | 0.82 | 0.72 | inactive |
| MTCH2 | SID134312419 | 0.24 | 0.57 | inactive |
| SUDS3 | SID135624636 | 0.5 | 0.38 | inactive |
| ATP5PD | SID135622382 | 1.01 | 0.39 | active |
| TMEM145 | SID135623476 | 0.88 | 0.6 | inactive |
| TEX13A | SID152147360 | 0.35 | 0.57 | active |
| NUP35 | SID152149448 | 0.06 | 0.14 | active |
| FAM167A | SID134319247 | 0.6 | 1.37 | inactive |
| SLC6A6 | SID152150938 | 0.58 | 0.92 | inactive |

Taken from above:
Entry for OR10H1 [SID152153335] in “cell gain with vemurafenib”: 0.5
EGLN1 [SID152154635], Call → inactive
ADGRL3 [SID135621042], Call = inactive
Result of AMN1 [SID134326723] under “Call”: inactive
CDC25C [SID152148969], lactate per cell with vemurafenib → 1.47

Next results:
| gene | PubChem SID | cell gain with vemurafenib | lactate per cell with vemurafenib | Call |
| --- | --- | --- | --- | --- |
| TICAM1 | SID152152582 | 1.1 | 0.92 | inactive |
| TRIM51EP | SID135624862 | 0.76 | 0.67 | inactive |
| IFT20 | SID134321658 | 0.72 | 0.62 | inactive |
| LONRF2 | SID152151519 | 0.61 | 0.53 | inactive |
| ATP2A1 | SID134311532 | 0.55 | 0.52 | inactive |
| SNRPE | SID152151034 | 0 | 2.21 | inactive |
| PPP1R7 | SID152153066 | 0.59 | 0.63 | inactive |
| ZNF443 | SID152154208 | 0.51 | 0.29 | inactive |
| CRYBB1 | SID135622162 | 0.38 | 0.92 | inactive |
| PID1 | SID135623636 | 0.73 | 0.87 | inactive |
| LACTB2 | SID134324629 | 0.52 | 1.12 | inactive |
| BICDL1 | SID152155070 | 0.12 | 2.54 | inactive |
| CAMSAP2 | SID134325282 | 0.11 | 1.09 | inactive |
| TPRKB | SID134329428 | 0.59 | 0.78 | inactive |
| TAS2R8 | SID134314666 | 0.64 | 0.51 | inactive |
| ATP5F1D | SID152148280 | 0.58 | 2.16 | inactive |
| TMEM154 | SID134320777 | 0.66 | 0.72 | inactive |
| SLC1A7 | SID152149235 | 1.12 | 0.93 | inactive |
| SLC13A1 | SID135621363 | 1.02 | 0.7 | inactive |
| PCED1A | SID134320321 | 0.58 | 0.31 | inactive |
| PLRG1 | SID135623780 | 0.65 | 0.66 | inactive |
| EXOC3L4 | SID152154778 | 0.59 | 1 | inactive |
| FPR1 | SID134310007 | 1.06 | 0.48 | inactive |
| TRIM9 | SID134317217 | 0.56 | 1.08 | inactive |
| NDUFAF3 | SID135624670 | 0.44 | 1.22 | inactive |
| L3HYPDH | SID134314944 | 0.7 | 0.8 | inactive |
| OR51A4 | SID134329912 | 0.6 | 1.31 | inactive |
| ZFP91 | SID152147619 | 0.53 | 1.66 | inactive |
| UBTFL7 | SID135624611 | 0.55 | 0.58 | inactive |
| EVI2B | SID152148573 | 0.66 | 0.84 | inactive |
| MAOA | SID134314124 | 0.26 | 0.89 | inactive |
